This note sets out measurements from PubChem BioAssay AID624256 (NMMLSC, 2012).

Some of the results follow.

A short description of the assay: HoxA9-arrested leukemia cell differentiation promoters – flow cytometry, MLPCN library, primary screen (AID 624256).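 Also: cells exposed to compound for four days before flow analysis.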 The note with it: ER-HoxA9 myeloid progenitors, lysozyme-GFP differentiation, measured here: differentiation confirmed by MAC1 staining, at 10 µM, stronger effect = higher value.
`COc1cc(OC)c(C(=O)NCC2(N(C)C)CCCCC2)cc1OC` showed a GFP+ MAC1+ double positive of 0.4%.

As to `CCCCn1nnnc1C(c1ccnc2ccccc12)N1CCC(n2c(=O)[nH]c3ccccc32)CC1` (stereo not drawn), the GFP+ MAC1+ double positive is 1.2%.

As to `CC(C)c1ccc(NC2CCN(C(=O)OC(C)(C)C)CC2)cc1`, the GFP+ MAC1+ double positive is 0.6%.

With `CCCCn1nnnc1C(c1ccccc1OC(F)(F)F)N1CCC(n2c(=O)[nH]c3ccccc32)CC1` (stereo not drawn), the GFP+ MAC1+ double positive is 1.2%.

Regarding `CN(C)c1cccc(C(=O)NCC2(N3CCCCC3)CCCCC2)c1`, the GFP+ MAC1+ double positive worked out at 0.5%.

Compound `COc1ccc(CN(CCCl)CCCl)cc1Cl` had a GFP+ MAC1+ double positive of 0.7%.

In the case of `COc1cc(C(=O)NCC2(N3CCCCC3)CCCCC2)ccc1OC(F)F`, the GFP+ MAC1+ double positive came to 7.3%.

As for `O=C(NCC1(N2CCOCC2)CCCCC1)c1cc(=O)[nH]c2ccccc12`, the GFP+ MAC1+ double positive amounted to 1%.

Consider `CCCCn1nnnc1C(c1cccc2ccccc12)N1CCC(n2c(=O)[nH]c3ccccc32)CC1` (stereo not drawn), for which the GFP+ MAC1+ double positive came out at 1.2%.

In turn, `CN1CCN(CCOC(=O)C(O)(c2ccccc2)c2ccccc2)CC1` had a GFP+ MAC1+ double positive of 1.2%.

`COc1ccc(NC2CCN(C(=O)OC(C)(C)C)CC2)cc1`: the GFP+ MAC1+ double positive amounted to 0.3%.

On to `CC(C)c1ccc(C(=O)NCC2(N3CCOCC3)CCCCC2)cc1`, for which the GFP+ MAC1+ double positive came out at 1.7%.

In the case of `O=C(NCC1(N2CCCCC2)CCCCC1)c1cccc(C(F)(F)F)c1`, the GFP+ MAC1+ double positive came to 2%.

`N#CC1(Nc2ccccc2)CCN(CCc2ccccc2)CC1` displayed a GFP+ MAC1+ double positive of 0.2%.

Regarding `CCN1CCC(Nc2ccc(Cl)cc2)CC1`, the GFP+ MAC1+ double positive stood at 0.1%.

`CSc1ccc(C(=O)NCC2(N3CCOCC3)CCCCC2)cc1` gave a GFP+ MAC1+ double positive of 0.9%.

`O=C(NCC1(N2CCCCC2)CCCCC1)c1cccc([N+](=O)[O-])c1` returned a GFP+ MAC1+ double positive of 0.4%.

As for `O=C(NCC1(N2CCCCC2)CCCCC1)c1ccc(OC(F)F)cc1`, the GFP+ MAC1+ double positive came out at 1.6%.

In the case of `CC(C)(C)n1nnnc1C(c1ccccc1OC(F)(F)F)N1CCC(n2c(=O)[nH]c3ccccc32)CC1` (stereo not drawn), the GFP+ MAC1+ double positive turned out to be 1.6%.

In the case of `COc1cc(C(=O)NCC2(N(C)C)CCCCC2)ccc1OC(F)F`, the GFP+ MAC1+ double positive turned out to be 0.2%.

`CCOC(=O)N1CCC(Nc2cccc(C)c2)CC1` had a GFP+ MAC1+ double positive of 0.9%.

Compound `O=c1[nH]c2ccccc2n1C1CCN(C(c2cccc3ccccc23)c2nnnn2C2CCCC2)CC1` (stereo not drawn) had a GFP+ MAC1+ double positive of 0.6%.

In the case of `O=c1[nH]c2ccccc2n1C1CCN(C(c2ccccc2)c2nnnn2C2CCCCC2)CC1` (stereo not drawn), the GFP+ MAC1+ double positive came out at 0.5%.

Consider `COc1ccc(NC2CCN(CCc3ccccc3)CC2)c(OC)c1`, for which the GFP+ MAC1+ double positive came out at 7.8%.

On to `CCOC(=O)N1CCC(Nc2ccc(F)cc2)CC1`, for which the GFP+ MAC1+ double positive stood at 0.5%.

In turn, `O=C(NCC1(N2CCCCC2)CCCCC1)c1ccc(F)cc1` returned a GFP+ MAC1+ double positive of 0.5%.

For the compound `O=P1(N(CCCl)CCCl)SCCCS1`, the GFP+ MAC1+ double positive is 1.9%.

`CCCCn1nnnc1C(c1cc2ccccc2o1)N1CCC(n2c(=O)[nH]c3ccccc32)CC1` (stereo not drawn) gave a GFP+ MAC1+ double positive of 1.1%.

`CCCCOc1ccc(C(=O)NCC2(N3CCOCC3)CCCCC2)cc1` returned a GFP+ MAC1+ double positive of 0.6%.

As to `O=C1CCN(Cc2ccccc2)CC1`, the GFP+ MAC1+ double positive stood at 1.7%.

Compound `CC(C)(C)n1nnnc1C(c1ccccc1)N1CCC(n2c(=O)[nH]c3ccccc32)CC1` (stereo not drawn) showed a GFP+ MAC1+ double positive of 0.6%.

As to `CCOc1ccc(C)cc1CN(CCCl)CCCl`, the GFP+ MAC1+ double positive came out at 0.8%.

With `COc1ccc(Cl)cc1C(=O)NCC1(N2CCOCC2)CCCCC1`, the GFP+ MAC1+ double positive came out at 0.2%.

As for `O=C(OC1CN2CCC1CC2)C1c2ccccc2Oc2ccccc21` (stereo not drawn), the GFP+ MAC1+ double positive was 4%.

For `O=c1[nH]c2ccccc2n1C1CCN(C(c2cc3ccccc3o2)c2nnnn2C2CCCCC2)CC1` (stereo not drawn), the GFP+ MAC1+ double positive was 1.1%.

With `N#CC1(Nc2ccccc2)CCN(Cc2ccccc2)CC1`, the GFP+ MAC1+ double positive was 0.4%.

For the compound `O=C(NCC1(N2CCCCC2)CCCCC1)c1ccc(Cl)s1`, the GFP+ MAC1+ double positive turned out to be 1%.

Consider `CCCCn1nnnc1C(c1ccc(OC)cc1)N1CCC(n2c(=O)[nH]c3ccccc32)CC1` (stereo not drawn), for which the GFP+ MAC1+ double positive came to 2.2%.

For `CCOC(=O)N1CCC(Nc2ccc(OC)cc2)CC1`, the GFP+ MAC1+ double positive came to 0.1%.

The compound `Cc1cc(C)cc(N(C(=O)c2ccccc2)C2CCN(C(=O)OC(C)(C)C)CC2)c1` gave a GFP+ MAC1+ double positive of 0.8%.

`O=c1[nH]c2ccccc2n1C1CCN(C(c2ccccc2OC(F)(F)F)c2nnnn2C2CCCCC2)CC1` (stereo not drawn) had a GFP+ MAC1+ double positive of 1%.

`O=C(NCC1(N2CCCCC2)CCCCC1)c1ccc(Cl)nc1` had a GFP+ MAC1+ double positive of 0.7%.

As for `O=C(NCC1(N2CCOCC2)CCCCC1)c1cc2ccccc2o1`, the GFP+ MAC1+ double positive turned out to be 0.7%.

In turn, `Cc1cccc(NC2(C#N)CCN(Cc3ccccc3)CC2)c1` showed a GFP+ MAC1+ double positive of 1.2%.

Compound `CSc1ccccc1C(=O)NCC1(N2CCCCC2)CCCCC1` gave a GFP+ MAC1+ double positive of 0.3%.

In turn, `CCC(c1nnnn1C1CCCC1)N1CCC(n2c(=O)[nH]c3ccccc32)CC1` (stereo not drawn) registered a GFP+ MAC1+ double positive of 0.7%.

Take `COc1ccc(C(=O)NCC2(N3CCCCC3)CCCCC2)c(OC)c1OC`: the GFP+ MAC1+ double positive is 0.3%.

In turn, `CC(C)(C)OC(=O)N1CCC(N(C(=O)c2ccccc2)c2ccc(F)cc2)CC1` had a GFP+ MAC1+ double positive of 0.7%.

In turn, `COc1ccc(C(=O)NCC2(N3CCCCC3)CCCCC2)cc1` returned a GFP+ MAC1+ double positive of 1.7%.

As for `CCCCn1nnnc1C(c1cccs1)N1CCC(n2c(=O)[nH]c3ccccc32)CC1` (stereo not drawn), the GFP+ MAC1+ double positive stood at 1.8%.

With `CCCCn1nnnc1C(CC)N1CCC(n2c(=O)[nH]c3ccccc32)CC1` (stereo not drawn), the GFP+ MAC1+ double positive was 0.4%.

Compound `O=C(NCC1(N2CCCCC2)CCCCC1)c1cccs1` had a GFP+ MAC1+ double positive of 0.2%.

As for `O=C(NCC1(N2CCCCC2)CCCCC1)c1ccc(=O)[nH]c1`, the GFP+ MAC1+ double positive stood at 1%.
